# According to the supplement of paper PMC10849652:
# Protein sequences, listed by entry. Tags and fused reporters are not part of them. Lines headed by an entry give the natural chain unless they say otherwise; changes in a name come on top.
# UniProt Q6P9B6: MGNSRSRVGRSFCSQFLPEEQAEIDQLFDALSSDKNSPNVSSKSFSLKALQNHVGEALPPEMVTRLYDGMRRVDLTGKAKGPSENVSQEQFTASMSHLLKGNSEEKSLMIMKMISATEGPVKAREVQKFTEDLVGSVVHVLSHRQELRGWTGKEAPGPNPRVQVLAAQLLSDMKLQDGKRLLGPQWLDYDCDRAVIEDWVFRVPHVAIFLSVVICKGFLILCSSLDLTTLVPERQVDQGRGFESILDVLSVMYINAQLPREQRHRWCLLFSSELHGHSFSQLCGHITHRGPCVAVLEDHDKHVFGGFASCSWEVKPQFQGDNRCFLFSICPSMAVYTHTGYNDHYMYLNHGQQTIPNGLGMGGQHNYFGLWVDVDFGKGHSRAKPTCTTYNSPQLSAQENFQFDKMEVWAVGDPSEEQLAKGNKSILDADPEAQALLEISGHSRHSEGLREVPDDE
# UniProt Q08431: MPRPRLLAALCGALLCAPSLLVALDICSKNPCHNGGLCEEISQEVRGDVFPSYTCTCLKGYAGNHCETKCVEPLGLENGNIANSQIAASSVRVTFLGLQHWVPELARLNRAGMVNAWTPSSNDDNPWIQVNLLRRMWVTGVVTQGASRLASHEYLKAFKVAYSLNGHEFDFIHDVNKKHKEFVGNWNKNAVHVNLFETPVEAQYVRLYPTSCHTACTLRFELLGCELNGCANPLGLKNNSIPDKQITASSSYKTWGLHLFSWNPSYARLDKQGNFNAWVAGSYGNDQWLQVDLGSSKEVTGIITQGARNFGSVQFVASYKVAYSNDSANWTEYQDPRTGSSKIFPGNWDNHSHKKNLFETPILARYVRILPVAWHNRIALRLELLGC
# UniProt P33991: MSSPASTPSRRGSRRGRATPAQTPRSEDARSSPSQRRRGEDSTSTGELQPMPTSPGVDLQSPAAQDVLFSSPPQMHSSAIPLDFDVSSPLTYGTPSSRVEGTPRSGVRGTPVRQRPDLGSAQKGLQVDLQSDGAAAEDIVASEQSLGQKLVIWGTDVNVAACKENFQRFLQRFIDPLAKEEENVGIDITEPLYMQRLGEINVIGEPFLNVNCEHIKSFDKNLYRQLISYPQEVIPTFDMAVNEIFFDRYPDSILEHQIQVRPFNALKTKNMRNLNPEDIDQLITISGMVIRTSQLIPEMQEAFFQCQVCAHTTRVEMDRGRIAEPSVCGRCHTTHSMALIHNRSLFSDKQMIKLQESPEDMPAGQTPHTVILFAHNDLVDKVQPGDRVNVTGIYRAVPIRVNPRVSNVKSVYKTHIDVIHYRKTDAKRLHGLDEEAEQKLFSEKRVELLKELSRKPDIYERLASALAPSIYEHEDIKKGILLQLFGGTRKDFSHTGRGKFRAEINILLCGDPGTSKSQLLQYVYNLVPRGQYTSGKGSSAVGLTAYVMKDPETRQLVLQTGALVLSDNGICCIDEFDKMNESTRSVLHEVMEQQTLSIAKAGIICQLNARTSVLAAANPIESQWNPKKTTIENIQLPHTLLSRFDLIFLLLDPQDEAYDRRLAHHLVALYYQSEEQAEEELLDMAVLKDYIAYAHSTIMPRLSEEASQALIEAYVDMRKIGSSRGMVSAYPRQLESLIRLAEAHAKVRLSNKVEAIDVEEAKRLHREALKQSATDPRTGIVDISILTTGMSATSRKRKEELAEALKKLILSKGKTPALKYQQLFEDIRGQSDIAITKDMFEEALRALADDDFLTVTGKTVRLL
# UniProt Q9BUE0: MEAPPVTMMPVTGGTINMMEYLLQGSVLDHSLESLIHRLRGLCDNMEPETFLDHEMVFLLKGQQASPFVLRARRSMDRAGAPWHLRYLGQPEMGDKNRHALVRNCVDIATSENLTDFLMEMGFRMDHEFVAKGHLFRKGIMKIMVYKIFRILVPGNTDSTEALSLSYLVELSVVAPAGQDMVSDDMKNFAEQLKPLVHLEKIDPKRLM
# UniProt Q9UBB5, whole entry, looked up: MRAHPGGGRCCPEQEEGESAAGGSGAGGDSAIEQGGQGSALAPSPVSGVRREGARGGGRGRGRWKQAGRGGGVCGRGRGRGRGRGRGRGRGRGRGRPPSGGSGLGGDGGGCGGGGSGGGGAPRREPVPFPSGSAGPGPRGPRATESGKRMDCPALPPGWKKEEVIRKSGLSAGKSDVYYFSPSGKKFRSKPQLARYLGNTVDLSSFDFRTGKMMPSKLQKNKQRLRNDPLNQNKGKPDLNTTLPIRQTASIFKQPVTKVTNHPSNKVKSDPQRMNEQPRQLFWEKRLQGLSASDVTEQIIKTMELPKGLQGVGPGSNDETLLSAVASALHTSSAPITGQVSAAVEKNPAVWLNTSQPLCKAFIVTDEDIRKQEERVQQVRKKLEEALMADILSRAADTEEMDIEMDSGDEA
# UniProt Q9GZY8: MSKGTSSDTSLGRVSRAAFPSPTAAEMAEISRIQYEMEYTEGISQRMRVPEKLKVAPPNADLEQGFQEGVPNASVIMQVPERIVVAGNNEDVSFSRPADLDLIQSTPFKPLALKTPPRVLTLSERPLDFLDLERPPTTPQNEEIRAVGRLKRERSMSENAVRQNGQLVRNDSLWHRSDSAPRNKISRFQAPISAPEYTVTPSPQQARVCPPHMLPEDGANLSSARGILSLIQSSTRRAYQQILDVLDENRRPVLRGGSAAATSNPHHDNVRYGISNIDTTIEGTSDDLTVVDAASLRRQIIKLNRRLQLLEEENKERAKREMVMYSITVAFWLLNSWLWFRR
# UniProt Q7L2J0: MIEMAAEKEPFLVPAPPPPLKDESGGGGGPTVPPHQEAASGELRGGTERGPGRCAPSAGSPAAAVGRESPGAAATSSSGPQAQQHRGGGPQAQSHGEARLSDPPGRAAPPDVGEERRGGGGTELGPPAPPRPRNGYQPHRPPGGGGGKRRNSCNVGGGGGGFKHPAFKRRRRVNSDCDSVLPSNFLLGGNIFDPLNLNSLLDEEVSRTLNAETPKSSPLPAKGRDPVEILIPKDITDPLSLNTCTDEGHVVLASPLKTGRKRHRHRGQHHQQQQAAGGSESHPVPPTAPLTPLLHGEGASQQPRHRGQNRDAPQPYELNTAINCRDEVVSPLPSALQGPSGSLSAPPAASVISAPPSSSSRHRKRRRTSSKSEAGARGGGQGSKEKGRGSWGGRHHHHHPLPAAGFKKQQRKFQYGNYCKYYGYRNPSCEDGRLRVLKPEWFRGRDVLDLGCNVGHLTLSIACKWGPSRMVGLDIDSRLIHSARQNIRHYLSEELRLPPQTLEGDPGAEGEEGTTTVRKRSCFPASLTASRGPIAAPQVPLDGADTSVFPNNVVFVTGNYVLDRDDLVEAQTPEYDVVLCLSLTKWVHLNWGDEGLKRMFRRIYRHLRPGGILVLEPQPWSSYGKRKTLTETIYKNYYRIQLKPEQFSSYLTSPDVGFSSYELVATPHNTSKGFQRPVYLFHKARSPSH
# UniProt O75448: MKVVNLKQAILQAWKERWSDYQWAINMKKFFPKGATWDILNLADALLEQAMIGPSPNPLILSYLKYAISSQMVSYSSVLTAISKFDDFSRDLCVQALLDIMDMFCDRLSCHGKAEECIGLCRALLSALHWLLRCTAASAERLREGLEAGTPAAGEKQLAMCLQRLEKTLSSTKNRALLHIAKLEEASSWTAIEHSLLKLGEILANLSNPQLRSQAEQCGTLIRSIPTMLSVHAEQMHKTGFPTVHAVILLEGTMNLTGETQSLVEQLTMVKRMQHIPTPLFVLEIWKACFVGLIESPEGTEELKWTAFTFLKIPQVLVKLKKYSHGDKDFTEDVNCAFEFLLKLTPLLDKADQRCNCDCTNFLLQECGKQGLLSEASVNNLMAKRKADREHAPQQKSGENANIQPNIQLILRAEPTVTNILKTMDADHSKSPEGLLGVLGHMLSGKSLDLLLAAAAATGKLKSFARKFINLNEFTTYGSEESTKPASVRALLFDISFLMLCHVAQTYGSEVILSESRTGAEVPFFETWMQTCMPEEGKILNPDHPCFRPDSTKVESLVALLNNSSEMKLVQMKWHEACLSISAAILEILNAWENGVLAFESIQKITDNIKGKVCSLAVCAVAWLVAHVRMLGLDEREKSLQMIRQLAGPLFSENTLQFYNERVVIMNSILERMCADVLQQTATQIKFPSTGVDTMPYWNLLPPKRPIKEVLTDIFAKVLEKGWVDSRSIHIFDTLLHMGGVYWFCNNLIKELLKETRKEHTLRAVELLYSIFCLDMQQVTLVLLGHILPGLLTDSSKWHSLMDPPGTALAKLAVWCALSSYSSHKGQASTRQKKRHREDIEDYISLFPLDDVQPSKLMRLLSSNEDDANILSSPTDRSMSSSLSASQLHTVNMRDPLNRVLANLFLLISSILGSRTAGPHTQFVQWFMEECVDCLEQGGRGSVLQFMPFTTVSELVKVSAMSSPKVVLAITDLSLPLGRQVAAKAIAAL
# The other results are listed elsewhere or left out.
# Assays:
# Experiment in all cases: log2 fold change, soluble protein after heating vs DMSO (PISA); higher = thermal stabilisation; K562 lysate, 10 uM; active = over 0.2 and 3.5 SD of the protein, either way, in both replicates (recomputed)
# [1] = compound: CCCS(=O)(=O)Nc1ccc(F)c(C(=O)c2c[nH]c3ncc(-c4ccc(Cl)cc4)cc23)c1F [vemurafenib]
# How it was run: (§1)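 Thermal stability, expressed as log-two fold change relative to solvent controls, is given from duplicates. Crude K562 extract in PBS pH 7.4 with 1 mM MgCl2, at 1 mg/mL protein, was treated with 10 μM compound for 30 min and heated in aliquots for 3 min across 48°C-58°C. After pooling, adjustment to 0.5% NP-40 at 4°C and centrifugation at 21,000xg for 90 min, supernatant protein was measured by TMTpro 16plex LC-MS/MS with channel sums equalised.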
# [2] = compound: CCCS(=O)(=O)Nc1ccc(F)c(C(=O)c2c[nH]c3ncc(Cl)cc23)c1F
# How it was run: as §1
# [3] = compound: CCN(CCCOc1ccc2c(Nc3cc(CC(=O)Nc4cccc(F)c4)[nH]n3)ncnc2c1)CCOP(=O)(O)O [barasertib]
# How it was run: as §1
# [4] = compound: CC[C@@H]1C(=O)N(C)c2cnc(Nc3ccc(C(=O)NC4CCN(C)CC4)cc3OC)nc2N1C1CCCC1
# How it was run: as §1
# [5] = compound: CC[C@@H]1C(=O)N(C)c2cnc(Nc3ccc(C(=O)N[C@H]4CC[C@H](N5CCN(CC6CC6)CC5)CC4)cc3OC)nc2N1C(C)C [volasertib]
# How it was run: as §1
# [6] = compound: CCn1c(C(=O)N(C2CC2)C2CC2)cc2c3c(ncn3C)c(Nc3cc(C)n(C)n3)nc21
# How it was run: as §1
# [7] = compound: CCn1cc(-c2ccnc3[nH]c(-c4cccc(CN(C)C)c4)cc23)c(-c2ccc(NC(=O)N(C)C)cc2)n1
# How it was run: as §1
# [8] = compound: CN1CCC(CNc2ccc3ncc(-c4cccc(OC(F)(F)F)c4)n3n2)CC1
# How it was run: as §1
# [9] = compound: CN1CCN(CCOc2cc(OC3CCOCC3)c3c(Nc4c(Cl)ccc5c4OCO5)ncnc3c2)CC1 [saracatinib]
# How it was run: as §1
# [10] = compound: CN1CCN(c2nc(C3=C(c4c[nH]c5ccccc45)C(=O)NC3=O)c3ccccc3n2)CC1 [sotrastaurin]
# How it was run: as §1
# [11] = compound: CN1CC[C@H](c2c(O)cc(O)c3c(=O)cc(-c4ccccc4Cl)oc23)[C@H](O)C1 [alvocidib]
# How it was run: as §1
# [12] = compound: CN1CCc2c(c3ccccc3n2Cc2ccc(C(=O)NO)cc2)C1 [Tubastatin A]
# How it was run: as §1
# [13] = compound: CNC(=O)C1=CC=CC=C1NC2=NC(=NC=C2Cl)NC3=C(C=C(C=C3)N4CCOCC4)OC
# How it was run: as §1
# [14] = compound: CNC(=O)c1ccc(Nc2ncc(C(F)(F)F)c(NCc3nccnc3N(C)S(C)(=O)=O)n2)cc1 [defactinib]
# How it was run: as §1
# [15] = compound: CNc1nc(-c2ccc3c(N)n[nH]c3c2)cc(N2C[C@@H](C(=O)NC3CCCCC3)CC[C@H]2C)n1
# How it was run: as §1
# [16] = compound: COC(=O)N[C@@H](C)CNc1nccc(-c2cn(C(C)C)nc2-c2cc(Cl)cc(NS(C)(=O)=O)c2F)n1 [encorafenib]
# How it was run: as §1
# [17] = compound: COC(=O)[C@H](CCSC)NC(=O)C1=C(C=C(C=C1)NC[C@H](CS)N)C2=CC=CC=C2
# How it was run: as §1
# [18] = compound: COc1cc(Nc2ncc3c(n2)-c2ccc(Cl)cc2C(c2c(F)cccc2OC)=NC3)ccc1C(=O)O [alisertib]
# How it was run: as §1
# [19] = compound: COc1cc2nc(-c3cc(F)ccc3O)nc(N[C@@H]3CNC[C@H]3C(C)(C)O)c2cc1OC
# How it was run: as §1
# [20] = compound: COc1cc2ncnc(Nc3ccc(F)c(Cl)c3)c2cc1OCCCN1CCOCC1 [gefitinib]
# How it was run: as §1
Target,log2 fold change [1],log2 fold change [2],log2 fold change [3],log2 fold change [4],log2 fold change [5],log2 fold change [6],log2 fold change [7],log2 fold change [8],log2 fold change [9],log2 fold change [10],log2 fold change [11],log2 fold change [12],log2 fold change [13],log2 fold change [14],log2 fold change [15],log2 fold change [16],log2 fold change [17],log2 fold change [18],log2 fold change [19],log2 fold change [20]
MEAK7 (UniProt Q6P9B6),inactive: -0.045,inactive: 0.034,inactive: -0.033,inactive: -0.026,inactive: -0.052,inactive: -0.009,inactive: 0.034,inactive: 0.01,inactive: 0.021,inactive: 0.006,inactive: -0.019,inactive: 0.027,inactive: -0.025,inactive: 0.008,inactive: 0.019,inactive: 0.044,inactive: 0.042,inactive: 0.044,inactive: -0.012,inactive: -0.052
MFGE8 (UniProt Q08431),inactive: -0.05,inactive: -0.023,inactive: -0.004,inactive: 0.087,inactive: -0.061,inactive: -0.02,inactive: -0.147,inactive: 0.148,inactive: -0.028,inactive: 0.03,inactive: -0.084,inactive: 0.052,inactive: 0.033,inactive: -0.087,inactive: 0.028,inactive: 0.041,inactive: -0.085,inactive: 0.016,inactive: 0.116,inactive: -0.102
MCM4 (UniProt P33991),inactive: 0.01,inactive: 0.022,inactive: 0.065,inactive: -0.079,inactive: -0.074,inactive: 0.032,inactive: 0.018,inactive: -0.048,inactive: -0.018,inactive: 0.021,inactive: 0.007,inactive: -0.032,inactive: -0.054,inactive: -0.013,inactive: -0.049,inactive: -0.018,inactive: 0.072,inactive: -0.01,inactive: 0.008,inactive: -0.03
MED18 (UniProt Q9BUE0),inactive: -0.031,inactive: -0.004,inactive: 0.018,inactive: 0.007,inactive: -0.026,inactive: 0.002,inactive: 0.043,inactive: -0.175,inactive: 0.013,inactive: -0.031,inactive: 0.052,inactive: -0.017,inactive: -0.024,inactive: 0.014,inactive: -0.037,inactive: -0.028,inactive: -0.022,inactive: -0.034,inactive: 0.007,inactive: -0.054
MBD2 (UniProt Q9UBB5),inactive: -0.014,inactive: 0.016,inactive: -0.009,inactive: 0.059,inactive: -0.021,inactive: 0.073,inactive: -0.005,inactive: -0.007,inactive: -0.036,inactive: -0.089,inactive: 0.026,inactive: -0.06,inactive: 0.001,inactive: 0.022,inactive: 0.083,inactive: 0.013,inactive: -0.061,inactive: 0.031,inactive: 0.024,inactive: -0.016
MFF isoform 2 (UniProt Q9GZY8),inactive: 0.019,inactive: 0.027,inactive: 0.027,inactive: 0.032,inactive: -0.014,inactive: 0.035,active: -0.234,inactive: 0.036,inactive: 0.011,inactive: -0.044,inactive: -0.046,inactive: -0.038,inactive: -0.052,inactive: 0.027,inactive: 0.024,inactive: 0.068,inactive: -0.113,inactive: 0.042,inactive: -0.075,inactive: 0.048
MEPCE (UniProt Q7L2J0),inactive: -0.048,inactive: -0.002,inactive: -0.059,inactive: -0.01,inactive: -0.016,inactive: 0.005,inactive: 0.023,inactive: -0.026,inactive: -0.011,inactive: -0.02,inactive: 0.003,inactive: -0.032,inactive: -0.004,inactive: 0.003,inactive: -0.032,inactive: 0.015,inactive: 0.131,inactive: -0.01,inactive: -0.029,inactive: 0.016
MED24 (UniProt O75448),inactive: -0.004,inactive: 0.004,inactive: 0.018,inactive: 0.027,inactive: -0.054,inactive: 0,inactive: -0.052,inactive: 0.006,inactive: 0.031,inactive: 0.003,inactive: 0.029,inactive: -0.111,inactive: 0.038,inactive: 0.007,inactive: 0.004,inactive: 0.022,inactive: 0.022,inactive: -0.028,inactive: -0.002,inactive: -0.018

# Part of the list above, with tabs:
Target	log2 fold change [1]	log2 fold change [2]	log2 fold change [3]	log2 fold change [4]	log2 fold change [5]	log2 fold change [6]	log2 fold change [7]	log2 fold change [8]	log2 fold change [9]	log2 fold change [10]	log2 fold change [11]	log2 fold change [12]	log2 fold change [13]	log2 fold change [14]	log2 fold change [15]	log2 fold change [16]	log2 fold change [17]	log2 fold change [18]	log2 fold change [19]	log2 fold change [20]
MCM4 (UniProt P33991)	inactive: 0.01	inactive: 0.022	inactive: 0.065	inactive: -0.079	inactive: -0.074	inactive: 0.032	inactive: 0.018	inactive: -0.048	inactive: -0.018	inactive: 0.021	inactive: 0.007	inactive: -0.032	inactive: -0.054	inactive: -0.013	inactive: -0.049	inactive: -0.018	inactive: 0.072	inactive: -0.01	inactive: 0.008	inactive: -0.03
MFF isoform 2 (UniProt Q9GZY8)	inactive: 0.019	inactive: 0.027	inactive: 0.027	inactive: 0.032	inactive: -0.014	inactive: 0.035	active: -0.234	inactive: 0.036	inactive: 0.011	inactive: -0.044	inactive: -0.046	inactive: -0.038	inactive: -0.052	inactive: 0.027	inactive: 0.024	inactive: 0.068	inactive: -0.113	inactive: 0.042	inactive: -0.075	inactive: 0.048
